These are yes or no findings as the source states them, for the method shown. Some results given as binding are weak or reduced against the parent protein; the word gives no strength.
How the values were obtained:
[1] = biological target: T1, human complement protein C5 (human, UniProt P01031 19-1676); assay: SPR (Biacore 3000), biotin-hC5 on CAP chip, pH 7.4
T1 construct: Native C5 is a two-chain protein made from one precursor; also called hC5; human C5

Amino acid sequences for entries named in this document (tags omitted). Residues count along the entry.
UniProt P01031, residues 19-1676: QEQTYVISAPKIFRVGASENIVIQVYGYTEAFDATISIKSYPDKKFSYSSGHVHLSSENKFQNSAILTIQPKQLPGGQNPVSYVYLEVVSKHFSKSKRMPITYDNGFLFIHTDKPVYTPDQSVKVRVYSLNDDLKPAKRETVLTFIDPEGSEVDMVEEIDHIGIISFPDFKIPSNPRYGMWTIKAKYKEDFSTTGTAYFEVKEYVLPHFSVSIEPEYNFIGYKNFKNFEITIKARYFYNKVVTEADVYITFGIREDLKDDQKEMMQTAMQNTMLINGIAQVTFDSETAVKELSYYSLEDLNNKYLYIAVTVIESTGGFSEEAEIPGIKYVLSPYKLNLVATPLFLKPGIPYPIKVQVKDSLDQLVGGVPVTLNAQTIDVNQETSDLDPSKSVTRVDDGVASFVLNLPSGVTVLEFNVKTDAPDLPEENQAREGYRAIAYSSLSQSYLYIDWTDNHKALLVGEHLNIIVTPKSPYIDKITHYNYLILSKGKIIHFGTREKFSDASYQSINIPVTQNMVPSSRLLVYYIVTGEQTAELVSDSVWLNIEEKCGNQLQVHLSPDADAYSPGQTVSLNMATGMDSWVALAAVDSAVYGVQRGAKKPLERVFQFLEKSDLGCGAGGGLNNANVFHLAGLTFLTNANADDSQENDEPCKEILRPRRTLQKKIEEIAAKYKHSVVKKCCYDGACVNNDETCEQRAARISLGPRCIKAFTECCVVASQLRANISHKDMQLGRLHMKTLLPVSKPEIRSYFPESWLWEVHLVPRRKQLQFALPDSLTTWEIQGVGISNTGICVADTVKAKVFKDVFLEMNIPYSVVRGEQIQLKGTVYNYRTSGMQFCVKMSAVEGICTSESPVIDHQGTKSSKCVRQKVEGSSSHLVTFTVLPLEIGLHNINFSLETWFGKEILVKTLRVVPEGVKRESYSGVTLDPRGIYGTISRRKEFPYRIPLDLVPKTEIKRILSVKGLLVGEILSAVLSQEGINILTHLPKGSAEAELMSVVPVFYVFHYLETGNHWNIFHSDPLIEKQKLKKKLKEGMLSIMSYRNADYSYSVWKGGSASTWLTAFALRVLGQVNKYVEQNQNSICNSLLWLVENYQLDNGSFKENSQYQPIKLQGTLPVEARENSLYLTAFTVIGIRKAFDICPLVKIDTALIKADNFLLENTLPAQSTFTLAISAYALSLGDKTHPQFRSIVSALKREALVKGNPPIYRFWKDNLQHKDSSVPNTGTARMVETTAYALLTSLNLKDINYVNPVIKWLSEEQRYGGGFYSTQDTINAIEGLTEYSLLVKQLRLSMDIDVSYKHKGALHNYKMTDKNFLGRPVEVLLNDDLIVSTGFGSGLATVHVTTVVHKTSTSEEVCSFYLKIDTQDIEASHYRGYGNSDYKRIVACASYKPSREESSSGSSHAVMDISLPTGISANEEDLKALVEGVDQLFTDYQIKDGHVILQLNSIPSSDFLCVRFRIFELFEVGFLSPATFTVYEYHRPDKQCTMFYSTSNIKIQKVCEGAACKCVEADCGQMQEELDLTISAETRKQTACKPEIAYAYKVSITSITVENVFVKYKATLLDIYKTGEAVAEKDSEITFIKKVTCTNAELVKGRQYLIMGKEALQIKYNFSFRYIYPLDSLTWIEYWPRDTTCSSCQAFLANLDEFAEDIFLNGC
UniProt P02768, residues 25-609: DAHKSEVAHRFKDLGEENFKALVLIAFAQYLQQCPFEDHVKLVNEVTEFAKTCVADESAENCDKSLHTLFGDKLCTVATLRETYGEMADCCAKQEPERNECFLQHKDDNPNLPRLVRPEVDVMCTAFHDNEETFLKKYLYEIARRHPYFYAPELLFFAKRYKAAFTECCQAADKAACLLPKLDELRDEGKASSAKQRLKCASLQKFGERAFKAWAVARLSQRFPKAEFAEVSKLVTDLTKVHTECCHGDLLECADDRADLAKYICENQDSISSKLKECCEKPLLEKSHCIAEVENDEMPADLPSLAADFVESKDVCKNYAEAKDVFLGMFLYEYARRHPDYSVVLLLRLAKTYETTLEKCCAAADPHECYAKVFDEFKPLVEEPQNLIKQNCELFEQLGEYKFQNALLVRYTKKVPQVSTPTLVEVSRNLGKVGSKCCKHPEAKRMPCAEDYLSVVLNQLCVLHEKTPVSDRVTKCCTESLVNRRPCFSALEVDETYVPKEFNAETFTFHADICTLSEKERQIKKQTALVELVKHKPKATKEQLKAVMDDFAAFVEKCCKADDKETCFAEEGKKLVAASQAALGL

human serum albumin [2] = biological target: T2, human serum albumin (human, UniProt P02768 25-609); assay: SPR (Biacore 3000), biotin-hC5 on CAP chip, pH 7.4
T2 construct: also called HSA; human albumin

[3] = biological target: T1, human complement protein C5; assay: sandwich: biotin-hC5 on CAP chip, fusion, then albumin; pH 7.4
human serum albumin [4] = biological target: T2, human serum albumin; assay: as above

Measured: binding

B1: TPP-3228 (bispecific antibody)
chain: EVQLVESGGGLVKPGGSLRLSCAASGRPVSNYAAAWFRQAPGKEREFVSAINWQKTATYADSVKGRFTISRDNAKNSLYLQMNSLRAEDTAVYYCAAVFRVVAPKTQYDYDYWGQGTLVTVSSGGGGGGGPEVQLVESGGGLVQPGGSLRLSCAASGRAHSDYAMAWFRQAPGQEREFVAGIGWSGGDTLYADSVRGRFTNSRDNSKNTLYLQMNSLRAEDTAVYYCAARQGQYIYSSMRSDSYDYWGQGTLVTVSS
binds: all assays above

B2: TPP-3227 (bispecific antibody)
chain: EVQLVESGGGLVKPGGSLRLSCAASGRPVSNYAAAWFRQAPGKEREFVSAINWQKTATYADSVKGRFTISRDNAKNSLYLQMNSLRAEDTAVYYCAAVFRVVAPKTQYDYDYWGQGTLVTVSSASTKGPSVFPLAPEVQLVESGGGLVQPGGSLRLSCAASGRAHSDYAMAWFRQAPGQEREFVAGIGWSGGDTLYADSVRGRFTNSRDNSKNTLYLQMNSLRAEDTAVYYCAARQGQYIYSSMRSDSYDYWGQGTLVTVSS
binds: all assays above

B3: TPP-3226 (bispecific antibody)
chain: EVQLVESGGGLVKPGGSLRLSCAASGRPVSNYAAAWFRQAPGKEREFVSAINWQKTATYADSVKGRFTISRDNAKNSLYLQMNSLRAEDTAVYYCAAVFRVVAPKTQYDYDYWGQGTLVTVSSASTKGPEVQLVESGGGLVQPGGSLRLSCAASGRAHSDYAMAWFRQAPGQEREFVAGIGWSGGDTLYADSVRGRFTNSRDNSKNTLYLQMNSLRAEDTAVYYCAARQGQYIYSSMRSDSYDYWGQGTLVTVSS
binds: all assays above

B4: TPP-3223 (bispecific antibody)
chain: EVQLVESGGGLVKPGGSLRLSCAASGRPVSNYAAAWFRQAPGKEREFVSAINWQKTATYADSVKGRFTISRDNAKNSLYLQMNSLRAEDTAVYYCAAVFRVVAPKTQYDYDYWGQGTLVTVSSGGGDSGGGGSEVQLVESGGGLVQPGGSLRLSCAASGRAHSDYAMAWFRQAPGQEREFVAGIGWSGGDTLYADSVRGRFTNSRDNSKNTLYLQMNSLRAEDTAVYYCAARQGQYIYSSMRSDSYDYWGQGTLVTVSS
binds: all assays above

B5: TPP-3224 (bispecific antibody)
chain: EVQLVESGGGLVKPGGSLRLSCAASGRPVSNYAAAWFRQAPGKEREFVSAINWQKTATYADSVKGRFTISRDNAKNSLYLQMNSLRAEDTAVYYCAAVFRVVAPKTQYDYDYWGQGTLVTVSSGGGASGGGGSEVQLVESGGGLVQPGGSLRLSCAASGRAHSDYAMAWFRQAPGQEREFVAGIGWSGGDTLYADSVRGRFTNSRDNSKNTLYLQMNSLRAEDTAVYYCAARQGQYIYSSMRSDSYDYWGQGTLVTVSS
binds: all assays above

B6: TPP-3225 (bispecific antibody)
chain: EVQLVESGGGLVKPGGSLRLSCAASGRPVSNYAAAWFRQAPGKEREFVSAINWQKTATYADSVKGRFTISRDNAKNSLYLQMNSLRAEDTAVYYCAAVFRVVAPKTQYDYDYWGQGTLVTVSSGGGESGGGGSEVQLVESGGGLVQPGGSLRLSCAASGRAHSDYAMAWFRQAPGQEREFVAGIGWSGGDTLYADSVRGRFTNSRDNSKNTLYLQMNSLRAEDTAVYYCAARQGQYIYSSMRSDSYDYWGQGTLVTVSS
binds: all assays above
